{"source": "paper PMC10936166", "biological_target": "T1, C-terminal HA-tagged GRA6 (mature, without signal peptide) (Toxoplasma gondii) (UniProt Q27003)", "T1 sequence": "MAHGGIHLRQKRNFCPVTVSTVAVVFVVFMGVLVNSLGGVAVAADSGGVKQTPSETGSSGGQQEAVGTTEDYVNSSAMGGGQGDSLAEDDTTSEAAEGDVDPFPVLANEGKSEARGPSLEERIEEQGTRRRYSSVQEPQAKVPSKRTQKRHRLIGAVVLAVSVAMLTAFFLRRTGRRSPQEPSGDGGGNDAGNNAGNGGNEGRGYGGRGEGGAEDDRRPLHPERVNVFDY", "test": "co-IP; HEK293T co-transfected with FLAG-ITCH (full-length or truncated) and HA-tagged GRA constructs; lysis in IP-lysis buffer B (25 mM HEPES, 150 mM NaCl, 1 mM EDTA, 1 mM EGTA, 0.65% NP40); anti-HA magnetic beads, 4°C overnight; immunoblotting", "note": "These are yes or no findings as the source states them, for the method shown. Binding seen in cells or lysates may run through a third protein. Where a sequence is shown, tags or fusion partners need not be part of it.", "data": [{"substance": "FLAG-tagged rat ITCH (FLAG-rITCH), full-length (enzyme)", "values": [{"measurement": "binding", "value": "no binding"}]}]}
